The subject of the test is HCoV-OC43. More on the design: species or system RD; HTS, protection from HCoV-OC43 induced cell death, luminescent cell viability (CellCounting-Lite 2.0), inhibition rate. As to conditions: 24 h post infection, 1 h compound pre-incubation, 10 µM, inhibitor.

These results are taken from publication PMC12431657, “Discovery and mechanistic insights of dibenzoylmethane as a broad spectrum inhibitor of coronavirus” (PLOS Pathogens, 2025).

Like-named read-outs stand apart in the source and are kept apart here. About 60 (2%) of roughly 3,300 compounds showed an effect of 50% or more. The list shows a part of the results.

Turning to `C[C@@]12CCc3occc3[C@H]1CC[C@@]13C[C@@H](CC[C@H]12)[C@@](O)(CO)C3` [Cafestol], the “OC43 Inhibition rate” value is listed as -1.3%.
Still for that read-out and setting: in the case of `NC(=O)CC[C@@H](N)C(=O)O` [D-Glutamine] it was 2.8%.
For `CC(=O)OC[C@H]1O[C@@H](OC(C)=O)[C@H](OC(C)=O)[C@@H](OC(C)=O)[C@@H]1OC(C)=O` [β-D-Glucose pentaacetate], the “OC43 Inhibition rate” value came out at 0.3%.
With `C[C@@H]1CC[C@@]2(OC1)O[C@H]1C[C@H]3[C@@H]4CC=C5C[C@@H](O)C[C@@H](O[C@@H]6O[C@H](C)[C@H](O)[C@H](O[C@@H]7OC[C@@H](O)[C@H](O)[C@H]7O)[C@H]6O[C@@H]6O[C@@H](C)[C@H](O)[C@@H](O)[C@H]6O)[C@]5(C)[C@H]4CC[C@]3(C)[C@H]1[C@@H]2C` [Ophiopogonin D], for the setting “OC43 Inhibition rate, 24 h”, the “OC43 Inhibition rate” value is on record as 1.6%.
On to `CCCCCCC(CCCCCCCCCC(=O)O)C(=O)OCC(O)CO` (centres unmarked) [Caprylic/Capric Triglyceride], for which the “OC43 Inhibition rate” value is recorded as -0.4%.
Still for that read-out and setting: with `COc1ccc([C@@H](O)CNC(=O)/C=C/c2ccccc2)cc1` (racemic) [Aegeline] the figure was 0.3%.
On the same count and under the same terms, in the case of `COC1[C@@H](O)[C@H](O)C(O)[C@H](O)[C@H]1O` (some centres unmarked) [Sequoyitol] it was 0.1%; in that of `O=C1C[C@@H](c2ccc(O)c(O)c2)Oc2cc(O[C@@H]3O[C@H](CO)[C@@H](O)[C@H](O)[C@H]3O)cc(O)c21` [Eriodictyol-7-O-glucoside], 0.3%.
Take `C[N+](C)(C)C[C@H](O)CC(=O)[O-]` [L-Carnitine]: the “OC43 Inhibition rate” value (OC43 Inhibition rate, 24 h) is given as 2.9%.
`COc1cc(CCC(=O)CC(=O)CCc2ccc(O)c(OC)c2)ccc1O` [Tetrahydrocurcumin]: the “OC43 Inhibition rate” value stood at 3.5%.
On the same count and under the same terms, in the case of `COc1cc(C(=O)O)cc(OC)c1O` [Syringic acid] it was -0.1%; in that of `C[C@@H]1CC[C@]2(C(=O)O)CC[C@]3(C)C(=CC[C@@H]4[C@@]5(C)CC[C@H](O[C@@H]6OC[C@H](O)[C@H](O)[C@H]6O)C(C)(C)[C@@H]5CC[C@]43C)[C@@H]2[C@]1(C)O` [Ziyuglycoside II], -3%.
On the same count and under the same terms, in the case of `COC(=O)c1cc(O)c(O)c(O)c1` [Methyl gallate] it was 0.3%; in that of `C/C=C/C(=O)C1=C(C)C=CCC1(C)C` [Damascenone], 0.2%.
Regarding `O=C1c2c(O)cccc2[C@@H]([C@@H]2O[C@H](CO)[C@@H](O)[C@H](O)[C@H]2O)c2cc(CO)cc(O)c21` [Aloin B], the “OC43 Inhibition rate” value is -0.2%.
On the same count and under the same terms, with `COc1ccc(C=O)cc1` [4-Methoxybenzaldehyde] the figure was 3.4%.
Same read-out and setting: in the case of `Cn1c(=O)c2nc[nH]c2n(C)c1=O` [Theophylline] it was -0.2%; in that of `CC(=O)O[C@H](CC=C(C)C)C1=CC(=O)c2c(O)ccc(O)c2C1=O` [Acetylshikonin], 3.9%; in that of `COc1cc2c(cc1OC)[C@@H](Cc1ccc(Oc3cc(C[C@@H]4c5cc(OC)c(OC)cc5CCN4C)ccc3O)cc1)N(C)CC2` [Dauricine], 0.3%.
The same measure, in the same setting: in the case of `COC[C@@H](Cc1ccc(OC)c(OC)c1)[C@@H](COC)Cc1ccc(OC)c(OC)c1` [Phyllanthin] it was 0.2%; in that of `CCCCCCCCCC(O)CC(=O)O` (centres unmarked) [3-Hydroxydodecanoic acid], -3.9%.
With `CC(CC(=O)C[C@@H](C)[C@H]1CC(=O)[C@@]2(C)C3=C(C(=O)[C@@H](O)[C@]12C)[C@@]1(C)CC[C@H](O)C(C)(C)[C@@H]1C[C@@H]3O)C(=O)O` (some centres unmarked) [Ganoderic acid G], the “OC43 Inhibition rate” value is reported as -1.7%.
Regarding `Cc1cc(=O)oc2cc(O)ccc12` [4-Methylumbelliferone], the “OC43 Inhibition rate” value is recorded as 0%.
On the same count and under the same terms, with `C/C=C1/[C@H](O[C@@H]2O[C@H](CO)[C@@H](O)[C@H](O)[C@H]2O)OC=C(C(=O)OC)[C@H]1CC(=O)OCCc1ccc(O)c(O)c1` [Oleuropein] the figure was 1%; with `C[C@@H]1O[C@@H](Oc2cc(O)c3c(=O)c(O)c(-c4ccc(O)c(O)c4)oc3c2)[C@H](O)[C@H](O)[C@H]1O` [Vincetoxicoside B], -0.3%; with `CCCCCCCCCCC(=O)O` [Undecanoic acid], -1.1%.
Still for that read-out and setting: with `O=c1[nH]cnc2c1ncn2[C@H]1C[C@H](O)[C@@H](CO)O1` [2'-Deoxyinosine] the figure was -0.4%; with `CC(C)=CC(O)C/C(C)=C/COc1c2ccoc2cc2oc(=O)ccc12` (centres unmarked) [Notopterol], 40.1%.
As to `CC(C)=CCC[C@](C)(O[C@@H]1O[C@H](CO[C@@H]2O[C@@H](CO)[C@H](O)[C@H]2O)[C@@H](O)[C@H](O)[C@H]1O)[C@H]1CC[C@]2(C)[C@@H]1[C@H](O)C[C@@H]1[C@@]3(C)CC[C@H](O[C@@H]4O[C@H](CO)[C@@H](O)[C@H](O)[C@H]4O[C@@H]4O[C@H](CO)[C@@H](O)[C@H](O)[C@H]4O)C(C)(C)[C@@H]3CC[C@]12C` [Ginsenoside Rc], the “OC43 Inhibition rate” value turned out to be 7.3%.
The same measure, in the same setting: in the case of `O=c1cc(-c2ccc(O)cc2)oc2c([C@@H]3OC[C@@H](O)[C@H](O)[C@H]3O)c(O)c([C@@H]3O[C@H](CO)[C@@H](O)[C@H](O)[C@H]3O)c(O)c12` [Vicenin 3] it was 0.6%; in that of `COc1cc(O)cc2oc(-c3ccc(O)c(O)c3)c(O)c(=O)c12` [Azaleatin], 7.4%; in that of `CCCCC[C@H](O)/C=C/[C@@H]1[C@@H](C/C=C\CCCC(=O)O)[C@@H](O)C[C@H]1O` [Dinoprost], 4%.
The same measure, in the same setting: in the case of `COC(=S)NCc1ccc(O[C@@H]2O[C@@H](C)[C@H](O)[C@@H](O)[C@H]2O)cc1` [Niazinin] it was 0.7%; in that of `C[C@@H](CO)CCC[C@@H](C)[C@H]1CC[C@H]2[C@@H]3CC=C4C[C@@H](O)CC[C@]4(C)[C@H]3CC[C@]12C` [27-Hydroxycholesterol], 0%; in that of `O=c1c2cc(O[C@@H]3O[C@H](CO)[C@@H](O)[C@H](O)[C@H]3O)c(O)cc2oc2cc(O)c([C@@H]3O[C@H](CO)[C@@H](O)[C@H](O)[C@H]3O)c(O)c12` [Neomangiferin], 3%.
With `C[N+](C)(C)CCOP(=O)(O)OP(=O)([O-])OC[C@H]1O[C@@H](n2ccc(N)nc2=O)[C@H](O)[C@@H]1O` [Citicoline], the “OC43 Inhibition rate” value (OC43 Inhibition rate, 24 h) was -2.5%.
`CC(=O)Oc1cccc2c1C(=O)c1c(OC(C)=O)cc(C(=O)O)cc1C2=O` [Diacerein]: the “OC43 Inhibition rate” value came out at 15.7%.
Still for that read-out and setting: with `CCCCCCCCCCCCCC(=O)OC` [Methyl myristate] the figure was -5.4%.
On the same count and under the same terms, with `CCCCC/C=C\C/C=C\CCCCCCCC(=O)OC` [Methyl linoleate] the figure was -1%; with `NCCCN(CCCCNCCCNC(=O)CCc1ccc(O)c(O)c1)C(=O)CCc1ccc(O)c(O)c1` [Kukoamine B], -0.1%; with `CCCCC/C=C\CCCCCCc1cc(=O)c2ccccc2n1C` [Evocarpine], 18.7%.
On the same count and under the same terms, with `CCC/C=C/C=O` [Trans-2-Hexenal] the figure was -0.7%; with `O=C(O)C1CCN1` (centres unmarked) [Azetidine-2-carboxylic acid], -6.6%.
As to `COc1ccc2c(c1OC)CN(C)c1c-2ccc2cc3c(cc12)OCO3` [Dihydrochelerythrine], the “OC43 Inhibition rate” value amounted to 1.4%.
In the case of `C[C@H](CCC(=O)NCCS(=O)(=O)O)[C@H]1CC[C@H]2[C@@H]3[C@H](O)C[C@@H]4C[C@H](O)CC[C@]4(C)[C@H]3CC[C@]12C` [Taurochenodeoxycholic acid (sodium)], the “OC43 Inhibition rate” value (OC43 Inhibition rate, 24 h) was 0.2%.
On to `COC(=O)C1=CO[C@@H](O[C@@H]2O[C@H](CO)[C@@H](O)[C@H](O)[C@H]2O)[C@@H]2[C@@H](C)[C@@H](O)C[C@H]12` [Loganin], for which the “OC43 Inhibition rate” value came to 0.6%.
Still for that read-out and setting: in the case of `C/C=C/c1cc(OC)c2c(c1)C(C)C(c1ccc(O)c(OC)c1)O2` (centres unmarked) [Dehydrodiisoeugenol] it was 1.2%; in that of `COc1cc(/C=C/C(=O)O)cc(OC)c1OC` [3,4,5-Trimethoxycinnamic acid], 0.3%.
Turning to `C=C(C)[C@@H]1CC=C(CO)CC1` [Perillyl alcohol], where the note is “OC43 Inhibition rate, 24 h”, the “OC43 Inhibition rate” value is on record as 0.1%.
For `OC[C@H]1O[C@@H](Oc2ccc(O)cc2)[C@H](O)[C@@H](O)[C@@H]1O` [Arbutin], the “OC43 Inhibition rate” value is reported as -0.2%.
Regarding `O=c1ccn([C@H]2C[C@H](O)[C@@H](COP(=O)(O)O)O2)c(=O)[nH]1` [2'-Deoxyuridine 5'-monophosphate (disodium)], the “OC43 Inhibition rate” value amounted to 1%.
On the same count and under the same terms, with `CCCCCC/C=C\CCCCCCCCCc1cccc(O)c1C(=O)O` [Ginkgolic acid C17:1] the figure was -3.3%; with `COc1ccc(C[C@@H]2c3cc(Oc4cc(C[C@@H]5c6cc(O)c(OC)cc6CCN5C)ccc4O)c(OC)cc3CCN2C)cc1` [Isoliensinine], 30.7%; with `OC[C@H]1OC(O)[C@@H](O)[C@@H](O)[C@@H]1O` (stereo partly drawn) [D-Mannose], 3.4%.
The same measure, in the same setting: with `COc1ccc(OC)cc1` [1,4-Dimethoxybenzene] the figure was 0.9%.
With `COc1cc(C)ccc1O` [Creosol], the “OC43 Inhibition rate” value is reported as 0.5%.
Still for that read-out and setting: in the case of `O=c1c(-c2ccc(O)cc2)coc2cc(O[C@@H]3O[C@H](CO)[C@@H](O)[C@H](O)[C@H]3O)cc(O)c12` [Genistin] it was 1.6%.
Still for that read-out and setting: with `Nc1ccc(C(=O)NCC(=O)O)cc1` [4-Aminohippuric acid] the figure was -0.5%.
On to `C[C@]12CC[C@@H]3c4ccc(OS(=O)(=O)O)cc4CC[C@H]3[C@@H]1CCC2=O` [Estropipate], for which the “OC43 Inhibition rate” value (OC43 Inhibition rate, 24 h) is 1.4%.
Take `CC(=O)[C@H]1CC[C@H]2[C@@H]3CC[C@H]4CC(=O)CC[C@]4(C)[C@H]3CC[C@]12C` [5a-Pregnane-3,20-dione]: the “OC43 Inhibition rate” value is reported as 7.4%.
The same measure, in the same setting: in the case of `Cn1cncc1C[C@H](N)C(=O)O` [3-Methyl-L-histidine] it was -5.7%.
Turning to `CO[C@@H]1[C@@H](OC(N)=O)[C@@H](O)[C@H](Oc2ccc3c(O)c(NC(=O)c4ccc(O)c(CC=C(C)C)c4)c(=O)oc3c2C)OC1(C)C` [Novobiocin (sodium)], the “OC43 Inhibition rate” value stood at 7.5%.
